Experimental data from the supplement of paper PMC8728848.
The list shows a part of the results.

How the values were obtained:
Test in all cases: glycan array binding signal (z-score within array); higher = stronger binding
Details in all cases: glycan notation: IUPAC condensed, linker removed
Gal6S(b1-4)Glc6S = molecular target: Gal6S(b1-4)Glc6S
How it was run: (§1)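 The binding signal is a Z-score computed within each array. Data were drawn from 3228 arrays in the Consortium for Functional Glycomics database, restricted to those with a known protein sequence. Scores were averaged over arrays of the same protein sequence at different concentrations or buffers, and over linkers, and negative values can be taken as non-binding.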

Gal6S(b1-4)GlcNAc = molecular target: Gal6S(b1-4)GlcNAc
How it was run: as §1

Gal6S(b1-4)GlcNAc6S = molecular target: Gal6S(b1-4)GlcNAc6S
How it was run: as §1

GalNAc(a1-3)Gal = molecular target: GalNAc(a1-3)Gal
How it was run: as §1

GalNAc(a1-3)GalNAc = molecular target: GalNAc(a1-3)GalNAc
How it was run: as §1

[1] = molecular target: GalNAc(a1-3)GalNAc(b1-3)Gal(a1-4)Gal(b1-4)Glc
How it was run: as §1

[2] = molecular target: GalNAc(a1-3)GalNAc(b1-3)Gal(a1-4)Gal(b1-4)GlcNAc
How it was run: as §1

GalNAc(b1-3)Gal = molecular target: GalNAc(b1-3)Gal
How it was run: as §1

[3] = molecular target: GalNAc(b1-3)Gal(a1-4)Gal(b1-4)GlcNAc
How it was run: as §1

[4] = molecular target: GalNAc(b1-3)Gal(a1-4)Gal(b1-4)GlcNAc(b1-3)Gal(b1-4)Glc
How it was run: as §1

[5] = molecular target: GalNAc(b1-3)Gal(a1-6)Gal(b1-4)Glc
How it was run: as §1

GalNAc(b1-3)GalNAc = molecular target: GalNAc(b1-3)GalNAc
How it was run: as §1

GalNAc(b1-3)GlcNAc = molecular target: GalNAc(b1-3)GlcNAc
How it was run: as §1

GalNAc(b1-4)Gal(b1-4)Glc = molecular target: GalNAc(b1-4)Gal(b1-4)Glc
How it was run: as §1

GalNAc(b1-4)GlcNAc = molecular target: GalNAc(b1-4)GlcNAc
How it was run: as §1

[6] = molecular target: GalNAc(b1-4)GlcNAc(b1-2)Man
How it was run: as §1

[7] = molecular target: GalNAc(b1-4)GlcNAc(b1-2)Man(a1-3)[GalNAc(b1-4)GlcNAc(b1-2)Man(a1-6)]Man(b1-4)GlcNAc(b1-4)GlcNAc
How it was run: as §1

[8] = molecular target: GalNAc(b1-4)GlcNAc(b1-3)GalNAc(b1-4)GlcNAc
How it was run: as §1

GalNAc(b1-4)GlcNAc6S = molecular target: GalNAc(b1-4)GlcNAc6S
How it was run: as §1

GalNAc(b1-6)GalNAc = molecular target: GalNAc(b1-6)GalNAc
How it was run: as §1

GalNAc3S(b1-4)GlcNAc = molecular target: GalNAc3S(b1-4)GlcNAc
How it was run: as §1

GalNAc3S(b1-4)GlcNAc3S = molecular target: GalNAc3S(b1-4)GlcNAc3S
How it was run: as §1

[9] = molecular target: GalNAc3S(b1-4)[Fuc(a1-3)]GlcNAc
How it was run: as §1

GalNAc4S6S(b1-4)GlcNAc = molecular target: GalNAc4S6S(b1-4)GlcNAc
How it was run: as §1

GalNAc6S(b1-4)GlcNAc = molecular target: GalNAc6S(b1-4)GlcNAc
How it was run: as §1

Glc(a1-4)Glc = molecular target: Glc(a1-4)Glc
How it was run: as §1

[10] = molecular target: Glc(a1-4)Glc(a1-4)Glc(a1-4)Glc
How it was run: as §1

Glc(a1-6)Glc(a1-6)Glc = molecular target: Glc(a1-6)Glc(a1-6)Glc
How it was run: as §1

[11] = molecular target: Glc(a1-6)Glc(a1-6)Glc(a1-6)Glc
How it was run: as §1

Glc(b1-4)Glc = molecular target: Glc(b1-4)Glc
How it was run: as §1

Glc(b1-6)Glc = molecular target: Glc(b1-6)Glc
How it was run: as §1

GlcA(b1-3)Gal = molecular target: GlcA(b1-3)Gal
How it was run: as §1

GlcA(b1-3)GlcNAc = molecular target: GlcA(b1-3)GlcNAc
How it was run: as §1

GlcA(b1-6)Gal = molecular target: GlcA(b1-6)Gal
How it was run: as §1

[12] = molecular target: GlcA3S(b1-3)Gal(b1-4)GlcNAc(b1-2)Man
How it was run: as §1

[13] = molecular target: GlcA3S(b1-3)Gal(b1-4)GlcNAc(b1-3)Gal(b1-4)Glc
How it was run: as §1

[14] = molecular target: GlcNAc(a1-3)Gal(b1-4)GlcNAc
How it was run: as §1

B1: GS13814A-bth-462-26-462 (Bacteroides thetaiotaomicron) (protein)
chain: DDRDNLMVNDQIGLLHSTYTETEIFRGMDTPYQLFVIKSGKGKQETEVSISVDETVLQSYNTDNGTSIQLLPSDCYTILQPALRLNDSDYRKAFDIKWNADRLSDLLSTGKEYGLPIQMSVVQNFISADDERLKTIIVPTIKEPYLQMDVPGMSPVTDFMPTFGDLNERELFVKIRTNYSNDEDISFQIEVDPQLVIDYNTAHGTAYKMLPESSFTVDNKGVILTGMKETFIKIKYHKKGLIPEEGTYLFGDYVLPLRITSVSKYGISPDAASKLYTVKFQPDPIDKKGWSVIDFNNCCTQDGGWYLNMGWGVESLIDNNPGTQWLCRWDVKEPLPYYFVFDMGKEYTLFRFGFANPVAPAAHVWAGTSKAGYVEASIDNENWVKLKDWTSPKIGEPNVNMDVPATQARYIRFVITDTYPTYDGLRVSLGEVYAWGM
What does the source list for B1?
glycan array binding signal (z-score) (Gal6S(b1-4)Glc6S): -0.606; glycan array binding signal (z-score) (Gal6S(b1-4)GlcNAc): 0.113; glycan array binding signal (z-score) (Gal6S(b1-4)GlcNAc6S): -0.754; glycan array binding signal (z-score) (GalNAc(a1-3)Gal): -0.303; glycan array binding signal (z-score) (GalNAc(a1-3)GalNAc): -0.59; glycan array binding signal (z-score) [1]: -0.801; glycan array binding signal (z-score) [2]: -1.3; glycan array binding signal (z-score) (GalNAc(b1-3)Gal): -0.506; glycan array binding signal (z-score) [3]: 2.74; glycan array binding signal (z-score) [4]: -0.981; glycan array binding signal (z-score) [5]: -0.576; glycan array binding signal (z-score) (GalNAc(b1-3)GalNAc): 0.545; glycan array binding signal (z-score) (GalNAc(b1-3)GlcNAc): -0.957; glycan array binding signal (z-score) (GalNAc(b1-4)Gal(b1-4)Glc): -1.17; glycan array binding signal (z-score) (GalNAc(b1-4)GlcNAc): 1.57; glycan array binding signal (z-score) [6]: 0.168; glycan array binding signal (z-score) [7]: -0.618; glycan array binding signal (z-score) [8]: -0.079; glycan array binding signal (z-score) (GalNAc(b1-4)GlcNAc6S): -0.003; glycan array binding signal (z-score) (GalNAc(b1-6)GalNAc): -0.44; glycan array binding signal (z-score) (GalNAc3S(b1-4)GlcNAc): -0.305; glycan array binding signal (z-score) (GalNAc3S(b1-4)GlcNAc3S): -0.469; glycan array binding signal (z-score) [9]: -0.189; glycan array binding signal (z-score) (GalNAc4S6S(b1-4)GlcNAc): 0.092; glycan array binding signal (z-score) (GalNAc6S(b1-4)GlcNAc): -0.938; glycan array binding signal (z-score) (Glc(a1-4)Glc): -0.58; glycan array binding signal (z-score) [10]: 0.18; glycan array binding signal (z-score) (Glc(a1-6)Glc(a1-6)Glc): -0.354; glycan array binding signal (z-score) [11]: -0.42; glycan array binding signal (z-score) (Glc(b1-4)Glc): 0.52; glycan array binding signal (z-score) (Glc(b1-6)Glc): -1.1; glycan array binding signal (z-score) (GlcA(b1-3)Gal): -0.279; glycan array binding signal (z-score) (GlcA(b1-3)GlcNAc): 0.458; glycan array binding signal (z-score) (GlcA(b1-6)Gal): 0.223; glycan array binding signal (z-score) [12]: 0.246; glycan array binding signal (z-score) [13]: -0.316; glycan array binding signal (z-score) [14]: -0.082
